Measured values taken from PMC5680929.
For at least one entry, the source does not settle the construct or the ends of the probe. Where cells or extracts were used, other partners may take part.

Target: BCL6 (human (HK-2 cells)) (UniProt P41182)
Test: EMSA supershift
Conditions: anti-BCL6 antibody 2 ug, HK-2 nuclear extract, binding reduced by 100-fold unlabeled probe; EMSA with HK-2 nuclear extract and biotin-labeled probe; pH and temperature not stated; protein in an extract

“CCTTTTTCTGGAGAATGGGG (double strand) [NLRP3 promoter +283/+296 probe]”: binds.
